This test concerns the target FLAG-tagged human β-TrCP1 (human) (UniProt Q9Y297). Briefly: co-IP.

The chains behind the UniProt entries cited, without tags or fusion partners. Where a name states a change or a piece, a line headed by the entry shows the natural chain unless it says otherwise.
UniProt Q9Y297: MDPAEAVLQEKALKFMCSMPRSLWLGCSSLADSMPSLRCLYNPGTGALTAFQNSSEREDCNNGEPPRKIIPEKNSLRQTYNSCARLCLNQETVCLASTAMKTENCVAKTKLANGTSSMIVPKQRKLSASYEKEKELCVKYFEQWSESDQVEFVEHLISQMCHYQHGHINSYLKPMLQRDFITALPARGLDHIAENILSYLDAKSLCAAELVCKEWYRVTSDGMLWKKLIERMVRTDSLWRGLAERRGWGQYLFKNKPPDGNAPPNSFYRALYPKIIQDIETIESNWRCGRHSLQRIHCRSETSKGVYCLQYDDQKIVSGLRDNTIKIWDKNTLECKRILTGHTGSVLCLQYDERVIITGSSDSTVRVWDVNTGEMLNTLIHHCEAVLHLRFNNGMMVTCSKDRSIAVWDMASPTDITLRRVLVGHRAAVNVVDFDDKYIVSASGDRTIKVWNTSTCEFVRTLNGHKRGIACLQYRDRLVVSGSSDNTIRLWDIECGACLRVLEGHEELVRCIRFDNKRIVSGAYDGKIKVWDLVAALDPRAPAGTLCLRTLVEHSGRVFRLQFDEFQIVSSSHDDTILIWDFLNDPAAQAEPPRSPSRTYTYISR
UniProt P05923: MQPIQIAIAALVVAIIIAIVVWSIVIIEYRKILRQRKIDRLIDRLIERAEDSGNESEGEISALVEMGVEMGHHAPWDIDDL
UniProt P03522: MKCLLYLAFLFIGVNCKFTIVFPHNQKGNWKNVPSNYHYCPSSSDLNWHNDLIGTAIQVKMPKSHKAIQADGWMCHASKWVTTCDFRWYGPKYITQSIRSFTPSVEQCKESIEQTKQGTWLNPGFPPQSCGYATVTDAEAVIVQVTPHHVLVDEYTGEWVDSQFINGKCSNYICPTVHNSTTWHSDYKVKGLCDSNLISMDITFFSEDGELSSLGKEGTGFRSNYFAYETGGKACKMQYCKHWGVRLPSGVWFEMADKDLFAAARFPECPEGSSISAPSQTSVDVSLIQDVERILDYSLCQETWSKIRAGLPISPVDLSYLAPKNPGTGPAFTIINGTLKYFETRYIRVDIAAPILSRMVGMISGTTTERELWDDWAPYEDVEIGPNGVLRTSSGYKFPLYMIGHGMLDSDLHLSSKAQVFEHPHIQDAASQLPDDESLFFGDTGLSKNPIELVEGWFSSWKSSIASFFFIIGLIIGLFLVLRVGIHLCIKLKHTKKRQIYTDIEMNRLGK

These are yes or no findings as the source states them, for the method shown. Binding seen in cells or lysates may run through a third protein. Some results given as binding are weak or reduced against the parent protein; the word gives no strength.

For the substance “Vpu-VSV-G-TMD (from UniProt P05923;P03522)”, the binding result is given as “binds”.
